At least one compound was matched to its structure with a doubt left.
Biological target: Jak2 tyrosine kinase (Homo sapiens (Human), UniProt O60674)
Test: Jak2 tyrosine kinase assay
Type: biochemical
Conditions: selectivity of Btk over Jak2

By UniProt entry, the sequences of proteins in these tests, tags left out. Where a name states a change or a piece, a line headed by the entry shows the natural chain unless it says otherwise.
UniProt O60674: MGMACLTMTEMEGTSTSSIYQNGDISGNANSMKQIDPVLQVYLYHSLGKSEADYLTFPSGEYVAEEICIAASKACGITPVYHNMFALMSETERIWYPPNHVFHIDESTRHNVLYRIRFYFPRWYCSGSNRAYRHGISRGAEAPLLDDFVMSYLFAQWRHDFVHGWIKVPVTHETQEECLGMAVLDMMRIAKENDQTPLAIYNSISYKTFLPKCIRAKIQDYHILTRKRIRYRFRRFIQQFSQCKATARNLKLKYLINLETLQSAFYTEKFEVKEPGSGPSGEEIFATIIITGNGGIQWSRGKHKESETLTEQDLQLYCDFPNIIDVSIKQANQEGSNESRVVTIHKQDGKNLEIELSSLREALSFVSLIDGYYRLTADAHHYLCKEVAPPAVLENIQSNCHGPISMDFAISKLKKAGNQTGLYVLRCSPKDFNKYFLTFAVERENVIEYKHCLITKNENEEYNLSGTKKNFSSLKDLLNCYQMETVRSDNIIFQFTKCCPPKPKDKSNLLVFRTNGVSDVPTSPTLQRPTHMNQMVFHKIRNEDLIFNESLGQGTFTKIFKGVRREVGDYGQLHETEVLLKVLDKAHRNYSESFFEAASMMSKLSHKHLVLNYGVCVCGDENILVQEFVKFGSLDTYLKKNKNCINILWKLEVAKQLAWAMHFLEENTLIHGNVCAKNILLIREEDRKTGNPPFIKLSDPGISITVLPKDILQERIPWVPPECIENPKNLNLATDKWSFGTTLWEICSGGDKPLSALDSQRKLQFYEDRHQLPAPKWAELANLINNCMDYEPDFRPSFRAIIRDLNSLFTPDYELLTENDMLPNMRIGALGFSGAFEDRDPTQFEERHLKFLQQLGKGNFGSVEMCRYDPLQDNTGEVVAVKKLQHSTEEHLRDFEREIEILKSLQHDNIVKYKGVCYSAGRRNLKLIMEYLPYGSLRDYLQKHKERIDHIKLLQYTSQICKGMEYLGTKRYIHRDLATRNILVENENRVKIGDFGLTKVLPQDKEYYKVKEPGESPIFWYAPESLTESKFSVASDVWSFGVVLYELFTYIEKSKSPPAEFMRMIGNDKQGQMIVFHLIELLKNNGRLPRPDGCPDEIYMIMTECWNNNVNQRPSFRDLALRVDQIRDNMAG

Row | SMILES | Ratio of Jak2/Btk IC50 values
1 | Cn1c(=O)n(-c2cccc(-c3c(F)cc(C(N)=O)c4[nH]c5cc(C(C)(C)O)ccc5c34)c2Cl)c(=O)c2cccc(F)c21 [Example 46, 4-(2-Chloro-3-(8-fluoro-1-methyl-2,4-dioxo-1,2-dihydroquinazolin-3(4H)-yl)phenyl)-3-fluoro-7-(2-hydroxypropan-2-yl)-9H-carbazole-1-carboxamide] | 1300
2 | Cc1c(-c2c(F)cc(C(N)=O)c3[nH]c4cc(C(C)(C)O)ccc4c23)cccc1-n1c(=O)[nH]c2c(Cl)cccc2c1=O [Example 53] | 2000
3 | Cn1c(=O)n(-c2cccc(-c3c(F)cc(C(N)=O)c4[nH]c5cc(C(C)(C)O)ccc5c34)c2Cl)c(=O)c2cccc(F)c21 [Example 61] | 1400

Reference: patent publication US9334290B2, “Substituted tetrahydrocarbazole and carbazole carboxamide compounds” (Bristol-Myers Squibb Company, priority 2013, dated 2016)
